Test results as given in paper PMC5052720.
Results are given in words; binding and its absence hold for the method and conditions named.

Molecular target: MjGATase_N109S (Methanocaldococcus jannaschii) (UniProt Q58970)
Experiment: SEC; analytical Superdex 200 column (1 x 30 cm), 0.5 ml/min, no GdmCl; calibrated with molecular weight standards (12.4-200 kDa); both purified

B1: MjGATase_N109S (enzyme, UniProt Q58970 1-188)
chain: MIVILDNGGQYVHRIHRSLKYIGVSSKIVPNTTPLEEIESNKEVKGIILSGGPDIEKAKNCIDIALNAKLPILGICLGHQLIALAYGGEVGRAEAEEYALTKVYVDKESDLFKNVPREFNAWASHKDEVKKVPEGFEILAHSDICQVEAMKHKTKPIYGVQFHPEVAHTEYGNEILKNFCKVCGYKFE
Which binding does the source give for B1 here?
Its binding is “no binding”.
